These are yes or no findings as the source states them, for the method shown. For some assays here: Binding calls can cover weak binding; strength is not graded here. For some assays here: Tags and fused reporters may be left off the sequences shown.
Key:
[1] = biological target: T1, NOT2 (subunit of the Drosophila CCR4-NOT core complex) (Drosophila) (UniProt Q94547); assay: ReLo
T1 sequence: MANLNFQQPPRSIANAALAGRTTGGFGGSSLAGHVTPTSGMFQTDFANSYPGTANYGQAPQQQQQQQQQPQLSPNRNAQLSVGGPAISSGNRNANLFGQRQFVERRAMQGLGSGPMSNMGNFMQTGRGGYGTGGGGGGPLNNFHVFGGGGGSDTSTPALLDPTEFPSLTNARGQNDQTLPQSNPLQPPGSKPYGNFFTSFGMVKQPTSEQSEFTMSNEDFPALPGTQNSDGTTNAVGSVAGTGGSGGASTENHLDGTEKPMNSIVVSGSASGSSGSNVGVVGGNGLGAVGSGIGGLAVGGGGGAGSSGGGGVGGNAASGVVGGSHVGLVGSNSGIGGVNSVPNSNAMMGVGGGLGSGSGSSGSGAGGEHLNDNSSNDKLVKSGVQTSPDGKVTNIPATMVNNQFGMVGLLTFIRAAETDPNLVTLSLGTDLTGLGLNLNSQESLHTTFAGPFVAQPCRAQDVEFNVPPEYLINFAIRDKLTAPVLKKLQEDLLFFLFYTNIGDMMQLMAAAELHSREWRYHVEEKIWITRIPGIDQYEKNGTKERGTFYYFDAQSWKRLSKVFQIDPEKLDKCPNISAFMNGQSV

Amino acid sequences for entries named in this document (tags omitted). A change or cut given only in a name is not applied to a line headed by its entry.
UniProt A8DY81: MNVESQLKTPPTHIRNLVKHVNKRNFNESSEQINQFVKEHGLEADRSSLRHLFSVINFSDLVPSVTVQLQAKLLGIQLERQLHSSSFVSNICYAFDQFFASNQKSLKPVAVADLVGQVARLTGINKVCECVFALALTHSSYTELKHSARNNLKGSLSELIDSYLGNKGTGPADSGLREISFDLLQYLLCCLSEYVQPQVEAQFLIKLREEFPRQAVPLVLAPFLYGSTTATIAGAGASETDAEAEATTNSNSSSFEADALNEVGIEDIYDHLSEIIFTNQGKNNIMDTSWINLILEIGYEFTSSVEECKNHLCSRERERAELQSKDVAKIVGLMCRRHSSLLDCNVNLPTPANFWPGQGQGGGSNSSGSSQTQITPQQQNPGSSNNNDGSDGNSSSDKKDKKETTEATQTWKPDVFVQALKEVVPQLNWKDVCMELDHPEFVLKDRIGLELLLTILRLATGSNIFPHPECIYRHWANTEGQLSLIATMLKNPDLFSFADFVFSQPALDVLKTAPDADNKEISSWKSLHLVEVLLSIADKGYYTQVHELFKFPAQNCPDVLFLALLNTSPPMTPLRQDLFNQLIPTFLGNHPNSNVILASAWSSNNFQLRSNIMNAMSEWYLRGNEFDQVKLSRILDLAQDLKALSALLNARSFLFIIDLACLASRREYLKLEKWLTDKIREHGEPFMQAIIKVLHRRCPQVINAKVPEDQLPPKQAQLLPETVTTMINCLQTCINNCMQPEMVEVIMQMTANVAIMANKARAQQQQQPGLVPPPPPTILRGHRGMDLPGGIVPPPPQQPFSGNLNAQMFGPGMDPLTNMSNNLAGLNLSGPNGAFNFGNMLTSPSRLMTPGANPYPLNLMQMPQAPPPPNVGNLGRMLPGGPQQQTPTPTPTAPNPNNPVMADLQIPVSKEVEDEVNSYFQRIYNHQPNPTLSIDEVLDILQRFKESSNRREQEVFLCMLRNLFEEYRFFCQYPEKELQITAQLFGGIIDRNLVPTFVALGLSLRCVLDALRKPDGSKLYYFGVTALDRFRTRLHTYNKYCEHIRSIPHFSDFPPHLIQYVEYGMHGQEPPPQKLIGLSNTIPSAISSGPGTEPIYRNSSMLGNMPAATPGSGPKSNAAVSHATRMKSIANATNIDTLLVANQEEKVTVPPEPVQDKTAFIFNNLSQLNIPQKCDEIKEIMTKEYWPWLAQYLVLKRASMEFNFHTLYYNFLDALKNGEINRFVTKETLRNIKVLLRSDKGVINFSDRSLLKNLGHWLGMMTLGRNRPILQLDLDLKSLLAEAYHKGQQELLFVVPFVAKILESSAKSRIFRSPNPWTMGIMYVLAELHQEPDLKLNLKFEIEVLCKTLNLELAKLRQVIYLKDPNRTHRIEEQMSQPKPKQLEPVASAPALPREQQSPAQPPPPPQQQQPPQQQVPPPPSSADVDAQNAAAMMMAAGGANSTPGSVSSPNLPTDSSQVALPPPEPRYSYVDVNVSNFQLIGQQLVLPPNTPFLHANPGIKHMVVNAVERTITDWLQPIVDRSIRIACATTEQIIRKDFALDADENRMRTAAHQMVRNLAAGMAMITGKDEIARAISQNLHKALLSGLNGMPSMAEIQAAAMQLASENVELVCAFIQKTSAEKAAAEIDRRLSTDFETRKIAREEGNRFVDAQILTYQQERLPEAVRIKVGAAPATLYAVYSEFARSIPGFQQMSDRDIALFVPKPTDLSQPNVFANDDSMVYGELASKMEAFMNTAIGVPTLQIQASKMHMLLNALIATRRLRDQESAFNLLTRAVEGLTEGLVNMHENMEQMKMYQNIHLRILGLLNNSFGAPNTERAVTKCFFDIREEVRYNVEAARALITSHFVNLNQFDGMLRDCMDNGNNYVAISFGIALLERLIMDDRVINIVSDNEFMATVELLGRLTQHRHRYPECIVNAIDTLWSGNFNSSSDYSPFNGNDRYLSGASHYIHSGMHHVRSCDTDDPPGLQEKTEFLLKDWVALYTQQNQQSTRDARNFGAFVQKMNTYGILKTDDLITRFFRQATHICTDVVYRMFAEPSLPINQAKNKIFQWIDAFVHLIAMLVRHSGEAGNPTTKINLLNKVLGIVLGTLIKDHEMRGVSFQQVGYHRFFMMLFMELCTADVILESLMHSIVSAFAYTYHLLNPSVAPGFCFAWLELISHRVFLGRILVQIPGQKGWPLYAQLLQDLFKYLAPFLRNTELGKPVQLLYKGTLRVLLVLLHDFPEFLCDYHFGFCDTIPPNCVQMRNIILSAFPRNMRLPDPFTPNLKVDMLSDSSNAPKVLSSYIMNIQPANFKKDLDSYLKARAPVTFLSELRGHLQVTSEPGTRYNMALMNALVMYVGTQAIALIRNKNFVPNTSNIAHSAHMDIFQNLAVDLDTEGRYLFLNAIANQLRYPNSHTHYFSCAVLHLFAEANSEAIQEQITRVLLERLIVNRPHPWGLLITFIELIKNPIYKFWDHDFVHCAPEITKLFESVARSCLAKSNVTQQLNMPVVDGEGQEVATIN
UniProt A0A0B4KEC4: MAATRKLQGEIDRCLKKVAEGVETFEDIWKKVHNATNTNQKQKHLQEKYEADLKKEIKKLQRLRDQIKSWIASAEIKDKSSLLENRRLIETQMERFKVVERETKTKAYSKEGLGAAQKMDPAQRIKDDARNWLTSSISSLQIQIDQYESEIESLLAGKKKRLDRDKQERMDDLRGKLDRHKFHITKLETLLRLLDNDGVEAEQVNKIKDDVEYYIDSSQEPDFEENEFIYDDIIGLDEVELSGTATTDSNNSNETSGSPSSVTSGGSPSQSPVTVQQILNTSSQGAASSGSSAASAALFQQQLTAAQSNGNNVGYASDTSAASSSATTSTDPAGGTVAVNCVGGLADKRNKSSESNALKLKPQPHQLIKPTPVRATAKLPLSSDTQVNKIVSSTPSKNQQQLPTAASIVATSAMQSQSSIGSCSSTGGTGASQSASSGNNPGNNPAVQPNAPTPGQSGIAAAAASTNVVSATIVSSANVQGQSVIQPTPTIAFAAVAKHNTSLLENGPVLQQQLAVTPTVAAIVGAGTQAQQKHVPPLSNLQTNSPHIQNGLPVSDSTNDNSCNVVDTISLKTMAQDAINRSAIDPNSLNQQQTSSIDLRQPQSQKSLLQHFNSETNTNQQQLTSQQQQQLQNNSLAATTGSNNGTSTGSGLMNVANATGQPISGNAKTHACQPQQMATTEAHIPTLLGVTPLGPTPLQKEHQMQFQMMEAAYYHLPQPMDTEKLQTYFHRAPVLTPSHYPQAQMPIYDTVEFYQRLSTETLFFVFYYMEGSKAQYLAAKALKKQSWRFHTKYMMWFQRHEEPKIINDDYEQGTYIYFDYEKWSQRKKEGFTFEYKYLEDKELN

[2] = biological target: NOT1 (subunit of the Drosophila CCR4-NOT core complex) (Drosophila) (UniProt A8DY81); assay: ReLo
[3] = biological target: NOT3 (subunit of the Drosophila CCR4-NOT core complex) (Drosophila); assay: ReLo
[4] = biological target: NOT3, split-ubiquitin yeast two-hybrid fusion (Drosophila); assay: two-hybrid
[5] = biological target: CAF40 (subunit of the Drosophila CCR4-NOT core complex) (Drosophila); assay: ReLo
[6] = biological target: CAF1 (subunit of the Drosophila CCR4-NOT core complex) (Drosophila); assay: ReLo
[7] = biological target: CAF40 V186E (CAF40 MUT) (Drosophila); assay: ReLo
[8] = biological target: CCR4 (subunit of the Drosophila CCR4-NOT core complex) (Drosophila); assay: ReLo

In the case of Drosophila Roquin, the binding [1] is reported as “no binding”.

With “CCR4 (subunit of the Drosophila CCR4-NOT core complex)” the binding [1] was “no binding”.

“CAF40 (subunit of the Drosophila CCR4-NOT core complex)” was tested, and the binding [1] was “no binding”.

For “NOT3 (subunit of the Drosophila CCR4-NOT core complex) (from UniProt A0A0B4KEC4)”, the binding [2] was “binds”.

B1: NOT2 (subunit of the Drosophila CCR4-NOT core complex) (protein, UniProt Q94547 1-585)
chain: MANLNFQQPPRSIANAALAGRTTGGFGGSSLAGHVTPTSGMFQTDFANSYPGTANYGQAPQQQQQQQQQPQLSPNRNAQLSVGGPAISSGNRNANLFGQRQFVERRAMQGLGSGPMSNMGNFMQTGRGGYGTGGGGGGPLNNFHVFGGGGGSDTSTPALLDPTEFPSLTNARGQNDQTLPQSNPLQPPGSKPYGNFFTSFGMVKQPTSEQSEFTMSNEDFPALPGTQNSDGTTNAVGSVAGTGGSGGASTENHLDGTEKPMNSIVVSGSASGSSGSNVGVVGGNGLGAVGSGIGGLAVGGGGGAGSSGGGGVGGNAASGVVGGSHVGLVGSNSGIGGVNSVPNSNAMMGVGGGLGSGSGSSGSGAGGEHLNDNSSNDKLVKSGVQTSPDGKVTNIPATMVNNQFGMVGLLTFIRAAETDPNLVTLSLGTDLTGLGLNLNSQESLHTTFAGPFVAQPCRAQDVEFNVPPEYLINFAIRDKLTAPVLKKLQEDLLFFLFYTNIGDMMQLMAAAELHSREWRYHVEEKIWITRIPGIDQYEKNGTKERGTFYYFDAQSWKRLSKVFQIDPEKLDKCPNISAFMNGQSV
With B1 the binding [3] was “binds”.

B2: NOT2, split-ubiquitin yeast two-hybrid fusion (protein, UniProt Q94547 1-585)
chain: MANLNFQQPPRSIANAALAGRTTGGFGGSSLAGHVTPTSGMFQTDFANSYPGTANYGQAPQQQQQQQQQPQLSPNRNAQLSVGGPAISSGNRNANLFGQRQFVERRAMQGLGSGPMSNMGNFMQTGRGGYGTGGGGGGPLNNFHVFGGGGGSDTSTPALLDPTEFPSLTNARGQNDQTLPQSNPLQPPGSKPYGNFFTSFGMVKQPTSEQSEFTMSNEDFPALPGTQNSDGTTNAVGSVAGTGGSGGASTENHLDGTEKPMNSIVVSGSASGSSGSNVGVVGGNGLGAVGSGIGGLAVGGGGGAGSSGGGGVGGNAASGVVGGSHVGLVGSNSGIGGVNSVPNSNAMMGVGGGLGSGSGSSGSGAGGEHLNDNSSNDKLVKSGVQTSPDGKVTNIPATMVNNQFGMVGLLTFIRAAETDPNLVTLSLGTDLTGLGLNLNSQESLHTTFAGPFVAQPCRAQDVEFNVPPEYLINFAIRDKLTAPVLKKLQEDLLFFLFYTNIGDMMQLMAAAELHSREWRYHVEEKIWITRIPGIDQYEKNGTKERGTFYYFDAQSWKRLSKVFQIDPEKLDKCPNISAFMNGQSV
B2 was tested, and the binding [4] was “binds”.

B3: Drosophila Bag-of-marbles (Bam) (protein, UniProt P22745 1-442)
chain: MLNARDVCPEGNDDQQLDHNFKQMEEHLALMVEGNENEDPRKATCEYEDTNEDGATCTSGVLSEIQENFGRLRLCDVTAPLLEFHGLDCLQQIQKRSRHFAFDGSPAKKSRSGGVLVTGPKQKQLQKENVWNRKSKGSASADNIEKLPITIEKLHMIGLHGDCLEHNAVLRLMNLFRSLHDHLTADLGFSRQNSMPSDYLFDMPVKSTMPKSLNVRYQLQVLCTKVERFLVQQRRTLEANRHFDFEKYDECDKLLKGFASYLDNFKLLLKPKMRNRNGNSGSNADKFHTQRMERLLIGLRDWIKAAHLSVHVFNWEMDLEHRYSGAMTESHKSLNERAILLSGAELRAAEARGISAEDLFIAQRYKLGGPIYCVLEQHEFLSALIANPETYFPPSVVAICGPQKLGAVSMEQPSASEEEFEETEEVPSSPPRHTGRVPRFRS
In the case of B3, the binding [5] is reported as “binds”, the binding [6] is reported as “no binding” and the binding [7] is reported as “no binding”. The binding [8] was “no binding” and the binding [3] was “no binding”.

B4: Drosophila Nanos (protein, UniProt P25724 1-401)
chain: MFRSNLEGSGAAAVGVANPPSLAQSGKIFQLQDNFSAFHARGGLNILGLQDMYLDTSGANSSATLSPPITPVTPDPSTSAQSTHFPFLADSAATANSLLMQRQYHYHLLLQQQQQLAMAQHQLALAASAAAASASHQQTDEIARSLKIFAQVTTGAAENAAGSMQDVMQEFATNGYASDDLGRMSYGSAPPQVQMPPQQQHQQQQGLHLPLGRNPAQLQTNGGNLMPIPLATHWLNNYREHLNNVWRNMSYIPAAPNTMGLQAQTAATVSTNLGVGMGLGLPVQGEQLRGASNSSNNNNNNNKVYKRYNSKAKEISRHCVFCENNNEPEAVINSHSVRDNFNRVLCPKLRTYVCPICGASGDSAHTIKYCPKKPIITMEDAIKAESFRLAKSSYYKQQMKV
For B4, the binding [5] was “binds”, the binding [7] was “no binding” and the binding [3] was “no binding”.

B5: Bam M24E (Bam MUT) (protein, UniProt P22745 1-442)
chain: MLNARDVCPEGNDDQQLDHNFKQEEEHLALMVEGNENEDPRKATCEYEDTNEDGATCTSGVLSEIQENFGRLRLCDVTAPLLEFHGLDCLQQIQKRSRHFAFDGSPAKKSRSGGVLVTGPKQKQLQKENVWNRKSKGSASADNIEKLPITIEKLHMIGLHGDCLEHNAVLRLMNLFRSLHDHLTADLGFSRQNSMPSDYLFDMPVKSTMPKSLNVRYQLQVLCTKVERFLVQQRRTLEANRHFDFEKYDECDKLLKGFASYLDNFKLLLKPKMRNRNGNSGSNADKFHTQRMERLLIGLRDWIKAAHLSVHVFNWEMDLEHRYSGAMTESHKSLNERAILLSGAELRAAEARGISAEDLFIAQRYKLGGPIYCVLEQHEFLSALIANPETYFPPSVVAICGPQKLGAVSMEQPSASEEEFEETEEVPSSPPRHTGRVPRFRS
In the case of B5, the binding [5] is reported as “no binding”.

B6: Nanos Δ140-160 (deletion of the CAF40-binding α-helix) (protein, UniProt P25724)
chain: MFRSNLEGSGAAAVGVANPPSLAQSGKIFQLQDNFSAFHARGGLNILGLQDMYLDTSGANSSATLSPPITPVTPDPSTSAQSTHFPFLADSAATANSLLMQRQYHYHLLLQQQQQLAMAQHQLALAASAAAASASHQQTAGSMQDVMQEFATNGYASDDLGRMSYGSAPPQVQMPPQQQHQQQQGLHLPLGRNPAQLQTNGGNLMPIPLATHWLNNYREHLNNVWRNMSYIPAAPNTMGLQAQTAATVSTNLGVGMGLGLPVQGEQLRGASNSSNNNNNNNKVYKRYNSKAKEISRHCVFCENNNEPEAVINSHSVRDNFNRVLCPKLRTYVCPICGASGDSAHTIKYCPKKPIITMEDAIKAESFRLAKSSYYKQQMKV
For B6, the binding [5] was “no binding”.

B7: Drosophila Cup (protein, UniProt Q9VMA3 1-1117)
chain: MQMAEAEQENGAGALKIATNAGATDRPAHQQLPLPVEDQQDEVLTPAEKGKFEYPPPPPPPTPVQAPLATKATALNASQEHDDDEANSEKWEDPCAPPPPPPLPTSAFLATGLGYLKLPAFKLKDALEKAITKLEANKRTLKASPESSRSIKNKNVVALEMLPRRSNPETIGDGSMLASTSTAVMLQTKKPAVIVEMERRCKIINLLAKQNQILESISGEAIPMHGPSKHLHEDEGLTLQVLSARASTPYTQPSSMLSCTAVSCDLEHDSPRKQVASKEAVPEQQSSQVQQKRPPSTGIHKPGSLRAPKAVRPTTAPVVSSKPVKSYTRSRLMDIRNGMFNALMHRSKESFVMPRIATCDDIELEGRLRRMNIWRTSDGTRFRTRSTTANLNMNNNNNNECMPAFFKNKNKPNLISDESIIQSQPPQPQTEFQDPAIVNQRRIGSGRLNHSKWGYNDEDYHSYHNGKSQHMEEVNSKNSKNMTVLQFFDNGEISSQPQRRPNTPVMGMSINRSENDTLHSNESSEDLSRANENYVKRVMSGFLVVSKPKSRDVEDRHHRRYRNQNEEPEWFSCGPTSRLDTIELCGFDEDEEKMLKEGNKNHGLGETERETSKQKMDHKYKWTHAEPMGRSKYMPKHDTNNNHNVENMNNVMATEHQQQKEEKRPGSGRSFQFDKFNQSQQNYESSSYVNHQQPPQTQPQQMQQQSNTNTNNSKFMSFFANEGNSSSSSLNEFFKQAINQGHGNNPEQPKSLGHIGQMPSVDQLEAKWRRNSLNNVGETANKQTDNFQKLIGSLSSAKPQSQAVGYDAISNFIMQQQQYQQQQQKQHLIIQQQQQHTAFLASLQLKAILGRADTQLLLLRLTKGEISKHGLLVQLANPRLTDMDREAITAVLQFTNTQQQQQQHKQQLDMLSSTVIASQLQNLHNLAIVQQTLAARQQPQHNPQTQAPHQLSQEDLQAHANVIMRNAVMKRKIEEQTSKLINGGAKHQAQQQYLNRGQQRQARPDANSNALLHALISGGGNNHASGYPMNGQPQKHHSNLRFGDNQNFQSFESNQPHFATQYKQQYQQSQQQHPHQQPQQLNSLHQNNAGAVNSFNKAQMQAQSAISMLPNSGDEFH
B7 was tested, and the binding [5] was “no binding”, the binding [6] was “no binding” and the binding [8] was “no binding”. For the same molecule, the binding [3] was “no binding”.

From doi:10.1101/2022.03.04.482790
